{"source": "patent US20150010479A1", "about": "“TREATMENT OF MICROBIAL INFECTIONS” (SINCLAIR PHARMACEUTICALS LIMITED, priority 2012, published 2015)", "key": {"P. gingivalis": {"test_system": "P. gingivalis", "assay": "CPC and delmopinol combination (chequerboard assay), FICi/FBCi", "assay_type": "cell-based, Porphyromonas gingivalis", "details": "CPC + delmopinol", "experimental": "(§1) 190 μl of normal broth (standard assays) or broth A was added to wells of a 96 well plate. […] 5 μl of each dilution of delmopinol was added to the appropriate wells of the 96 wells plate. The contents of each well were mixed thoroughly and then 100 μl volume was discarded.\n(§2) Plates were then incubated as described above. […] Following incubation the plates were examined and growth/no growth recorded for every well sample (used for FBC determination).\n(§3) FBCi were calculated in the same manner but using MBC data.\n(§4) The FICi and FBCi were interpreted using the same parameters as set out above."}, "Prv. nigrescence": {"test_system": "Prv. nigrescence", "assay": "CPC and delmopinol combination (chequerboard assay), FICi/FBCi", "assay_type": "cell-based, Prevotella nigrescence", "details": "Prv. Nigrescens; CPC + delmopinol; summary of Tables 3-4", "experimental": "as §1, §2, §3, §4"}, "S. aureus": {"test_system": "S. aureus", "assay": "CPC in combination with ¼ MIC of delmopinol, FICi/FBCi", "assay_type": "cell-based, Staphylococcus aureus", "details": "summary of Tables 5-6"}, "E. coli": {"test_system": "E. coli", "assay": "CPC in combination with ¼ MIC of delmopinol, FICi/FBCi", "assay_type": "cell-based, Escherichia coli", "details": "summary of Tables 9-10"}, "C. albicans": {"test_system": "C. albicans", "assay": "CPC and delmopinol combination (chequerboard assay), FICi/FBCi", "assay_type": "cell-based, Candida albicans", "details": "CPC + delmopinol, summary of Tables 11-12", "experimental": "as §1, §2, §3, §4"}}, "note": "For at least one compound, name, drawing or mass did not settle the structure."}
{"smiles": "CCCCCCCCCCCCCCCC[n+]1ccccc1", "note": "[CPC, cetylpyridinium chloride]", "values": [{"measurement": "Combination with delmopinol (FIC) Decapinol base FBCi", "setting": "P. gingivalis; Decapinol base (Broth A), chequerboard", "value": "NEP"}, {"measurement": "Summary of all synergies detected (mode of interaction)", "setting": "P. gingivalis; summary of Tables 1-2", "value": "potentiation"}, {"measurement": "Summary of all synergies detected (mode of interaction)", "setting": "Prv. nigrescence", "value": "synergy"}, {"measurement": "Summary of all synergies detected (mode of interaction)", "setting": "S. aureus", "value": "synergy"}, {"measurement": "Summary of all synergies detected (mode of interaction)", "setting": "E. coli", "value": "potentiation"}, {"measurement": "Summary of all synergies detected (mode of interaction)", "setting": "C. albicans", "value": "potentiation"}]}
